Laboratory results from patent US20260242756A1 (REPLIGEN, published 2026).
Where two headings read alike, the source gives them in different places.

What was measured:
[1] = target: T1, Vaccina Virus Capping Enzyme (VCE) (Vaccinia virus, UniProt P04298 1-844; P04318 1-287)
[2] = target: T1, Vaccina Virus Capping Enzyme (VCE); remark: listed apart in the source

Binder	Kd [1] [nM]	Kd [2] [nM]
biotinylated ligand corresponding to SEQ ID NO: 23 (designed binder, biotinylated with the Avitag system; the biotinylated residue is not stated) MAQGTVDAKFDKELEEARAEIERLPNLTERQRRHFIEALRWDPSDSATLLADAKSWNDWQAPKGQAGQGGGSGLNDIFEAQKIEWHEHHHHHH	26	–
biotinylated ligand corresponding to SEQ ID NO: 53 (designed binder, biotinylated with the Avitag system; the biotinylated residue is not stated) MGVDAKFDKELEEARAEIERLPNLTERQRRHFIEALRWDPSDSATLLADAKSWNDWQAPKGQAGQGAVDAKFDKELEEARAEIERLPNLTERQRRHFIEALRWDPSDSATLLADAKSWNDWQAPKGQAGQGGGSGLNDIFEAQKIEWHEHHHHHH	–	2
